The target in this assay is T1, IκB kinase α (IKKα) (human (endogenous in HT29)) (UniProt O15111).
T1 sequence: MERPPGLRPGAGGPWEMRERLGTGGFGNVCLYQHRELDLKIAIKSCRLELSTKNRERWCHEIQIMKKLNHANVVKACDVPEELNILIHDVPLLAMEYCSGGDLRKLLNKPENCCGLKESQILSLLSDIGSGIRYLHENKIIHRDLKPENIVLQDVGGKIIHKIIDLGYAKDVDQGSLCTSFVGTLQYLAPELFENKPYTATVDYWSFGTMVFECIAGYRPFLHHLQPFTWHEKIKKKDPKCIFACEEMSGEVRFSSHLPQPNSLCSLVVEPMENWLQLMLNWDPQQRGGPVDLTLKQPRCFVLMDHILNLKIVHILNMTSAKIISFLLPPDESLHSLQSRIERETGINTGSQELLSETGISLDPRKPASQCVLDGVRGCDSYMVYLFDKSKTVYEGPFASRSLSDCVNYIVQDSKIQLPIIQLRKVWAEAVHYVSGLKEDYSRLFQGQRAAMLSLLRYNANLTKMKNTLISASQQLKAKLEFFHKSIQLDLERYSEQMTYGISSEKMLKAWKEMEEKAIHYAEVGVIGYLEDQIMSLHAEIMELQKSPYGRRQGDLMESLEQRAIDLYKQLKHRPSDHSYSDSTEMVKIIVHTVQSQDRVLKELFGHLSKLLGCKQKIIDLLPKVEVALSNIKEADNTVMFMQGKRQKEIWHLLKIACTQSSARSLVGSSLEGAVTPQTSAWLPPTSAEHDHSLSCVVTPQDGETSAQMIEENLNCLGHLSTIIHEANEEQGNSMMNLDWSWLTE
Description: co-IP; 0.5 µg anti-IKKα antibody (or naïve rabbit IgG) on Protein A/G coated wells; 500 µg unstimulated HT29 lysate; washed twice with 50 mM Tris (pH 7.5), 150 mM NaCl and twice with kinase wash buffer; immunoblot for IKKα and IKKβ. For orientation: Immunoblotting shows a protein as a band on a membrane.

Results are given in words; binding and its absence hold for the method and conditions named. Binding seen in cells or lysates may run through a third protein. Some binding calls cover weakened binding; strength is not graded here.

B1: IκB kinase β (IKKβ) (enzyme, UniProt O14920 1-756)
chain: MSWSPSLTTQTCGAWEMKERLGTGGFGNVIRWHNQETGEQIAIKQCRQELSPRNRERWCLEIQIMRRLTHPNVVAARDVPEGMQNLAPNDLPLLAMEYCQGGDLRKYLNQFENCCGLREGAILTLLSDIASALRYLHENRIIHRDLKPENIVLQQGEQRLIHKIIDLGYAKELDQGSLCTSFVGTLQYLAPELLEQQKYTVTVDYWSFGTLAFECITGFRPFLPNWQPVQWHSKVRQKSEVDIVVSEDLNGTVKFSSSLPYPNNLNSVLAERLEKWLQLMLMWHPRQRGTDPTYGPNGCFKALDDILNLKLVHILNMVTGTIHTYPVTEDESLQSLKARIQQDTGIPEEDQELLQEAGLALIPDKPATQCISDGKLNEGHTLDMDLVFLFDNSKITYETQISPRPQPESVSCILQEPKRNLAFFQLRKVWGQVWHSIQTLKEDCNRLQQGQRAAMMNLLRNNSCLSKMKNSMASMSQQLKAKLDFFKTSIQIDLEKYSEQTEFGITSDKLLLAWREMEQAVELCGRENEVKLLVERMMALQTDIVDLQRSPMGRKQGGTLDDLEEQARELYRRLREKPRDQRTEGDSQEMVRLLLQAIQSFEKKVRVIYTQLSKTVVCKQKALELLPKVEEVVSLMNEDEKTVVRLQEKRQKELWNLLKIACSKVRGPVSGSPDSMNASRLSQPGQLMSQPSTASNSLPEPAKKSEELVAEAHNLCTLLENAIQDTVREQDQSFTALDWSWLQTEEEEHSCLEQAS
Consider B1, for which the binding entry is on record as “binds”.

For the origin of these results see PMC6923413.
